About 3,700 (7%) of roughly 53,000 sequences were called active.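 The calls were made as follows: active = gene knockdowns whose robust z-score for IL-1 alpha signal is at least 2 or at most -2, so actives lie on both sides; inactive = the rest.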 This is one part of the list.

A short description of this assay: Components of the Cytosolic LPS Sensing Pathway: Gene Identification via Genome-wide siRNA Screen.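 Also: robust z of the log signal after scaling to non-targeting control siRNA wells of the plate.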 Particulars: RAW264.7 macrophages, IL-1a HTRF, actives lie on both sides, screened at 100 nM (by protocol), cells primed 5 h with Pam3CSK4 first. The gist of the method:
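Read-out: IL-1a HTRF on supernatant, divided by plate negative-control median ×100, log-transformed and converted to robust z-score. Cells were RAW264.7 given 100 nM siRNA, Pam3CSK4-primed 5 hours, then LipidA-transfected 24 hour.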
Consider GGCAAGAUUACUGUUGUAGTT against Ndufaf4, for which the z-score was inactive: -0.303. Consider CCUGUAGCAUUACGUUAGCTT against Tnip3, for which the z-score is inactive: -0.355. With GGCUUUAUCCUGUCUGUGGTT against Slc10a2, the z-score is inactive: -2.

In the case of CCCACUCCAAACAUCUAAATT against Gadd45b, the z-score is inactive: -0.661.

In the case of GGAAGUUGAUGAAUUCUUATT against Raet1a, the z-score is inactive: -0.507. Regarding GCAAAUCAGUCUAUCGCUGTT against Mcpt8, the z-score is inactive: 0.39.

As to GGUAUACUCUUAGAGUAACTT against Klhl22, the z-score is inactive: 0.526. With GGAAAUCUUUGAGUUUGAATT against Clca1, the z-score was inactive: -0.0578. Turning to GGUAUGAUCAAUGACUUACTT against Serpine1, the z-score is inactive: -0.165.

On to GGAGCCUAUACUGAUUUAUTT against Tomm7, for which the z-score was active: 2.13. With GGUUUGCUUUUCGUAUCUATT against Ppp3r1, the z-score is inactive: -0.367. For the sequence GGGUGACAUGGUGACCAUCTT against Matk, the z-score was active: 3.54.

With GGUCAAGAAGUAUUUUGUCTT against Fbxo6, the z-score was inactive: -0.83. To GCUAGAACAGAAAAGAACCTT against Kcnb1 belongs inactive: 0.13. As for GGAAGGGAGACAAAAUAUATT against Cnpy1, the z-score was inactive: -1.38. On to “GGACAAAGAAACUCAUAGGTT against A530021J07Rik”, for which the z-score was inactive: 0.737. As to “GGUCAAAUCACUGAGUUUUTT against 9530080O11Rik”, the z-score is inactive: 1.74. With CCAUAAAAACCAGAGAAAUTT against Plekhf2, the z-score was inactive: -0.778.

Turning to GCCUUAUCCAUAUCGACUATT against Arrdc1, the z-score is inactive: 0.831. As to GCUCGUACAGAAAUACGUCTT against Psmc2, the z-score was inactive: 0.521.

In the case of GCCCUAAUCUAUGGGACAUTT against Tmem179, the z-score is active: 3.06. For GGAAAGCUAAUUUUGAAACTT against Cnep1r1, the z-score is inactive: -1.02. On to CGACAUGGGAUUUGGCUUGTT against Rplp2, for which the z-score was inactive: 0.613. For GGAGUCUUUUGCAUAUUUUTT against Trav3-3, the z-score was inactive: -1.04. GGUCUACGUGGCCAAAGUGTT against Txndc5: the z-score is inactive: 0.222. To GGAUGAGGAUGGCUAUAAGTT against Zc3h10 belongs inactive: 0.585. Next, GCUAACGAUAUUUAUCACGTT against Olfr385: inactive: -0.474; GGGAGAGAGAAAUUCAUAATT against Mtpn: inactive: -1.14; GCGCAUGGUGCAGAACCUATT against Krt12: inactive: 0.31. With CCUUUUUGGGUUGCUCUGUTT against Slc39a1, the z-score is inactive: -1.55. Next, GGUCCGGUGAAAGGAUUUUTT against Spag11a: inactive: 1.14; GGAAGCAUUAUUGGUCAAUTT against Tcf7l1: inactive: 1.42; GGAAAUAAUCAGGUUUAUCTT against Col4a3: inactive: -0.0485.

Take GGAAACAGAACAAGAUGUATT against Tnfsf13b: the z-score is inactive: -0.0717. With CCUGGCAGUAAUCACCAUUTT against Olfr1158, the z-score is inactive: -0.117. On to GGGCAAUUAGUAAAGGCUATT against Eif2s3x, for which the z-score was active: 2.02. For the sequence GGAGGUGGAUCAUAUGACUTT against Lrrc45, the z-score was inactive: 0.882. Turning to GGACAGUCUUUAGCUGAAATT against Slc2a10, the z-score is inactive: 1.51.

For GGAUAUCGAAGUGACAUCUTT against Rae1, the z-score is inactive: -0.0796. Consider GCGUGUCCUAUAGCAUCUGTT against Cela1, for which the z-score was inactive: -0.106. For GGAAAUGUGUGAAAUAACCTT against Ube2k, the z-score was inactive: 0.854. As for CGAAAACAGUUAGUUACCATT against Exog, the z-score is inactive: 0.644. Take GGUCUUAUCAAGAAGUGUATT against Cpt1b: the z-score is inactive: 0.883. GGACAUAAUGCAAAACAUUTT against Dym: the z-score was inactive: 0.199.

As to CCUCUAGGUCAUUUUACCUTT against Scmh1, the z-score was inactive: -0.573. To CCACCGUCUAUUUCAUUGUTT against Adora3 belongs inactive: 1.01. Next, CGCUGGUGGUAUAACCAAGTT against Wfdc6b: inactive: -1.06; GGACUGUGACCUCAAAAAGTT against Ppp1r17: inactive: 0.428. With GGAUAAUGACCAACCUUCUTT against Fbxo7, the z-score was inactive: -1.11. Turning to GGGCCAUUCAAACCACCAGTT against Vav3, the z-score was inactive: -1.37. In the case of GGCACAGGUUCCUUUUGAATT against Myct1, the z-score was inactive: -0.759. As to GGUUUUGUUACAAUAAAGGTT against Fbxl6, the z-score was inactive: -0.29.

Regarding GGGAUUUUUUGUUGCCAUCTT against Pth1r, the z-score was inactive: -0.115.

Turning to CCAACCAAAUCGUCGCCAUTT against Cdk7, the z-score was inactive: -1.15. Next, GGAGAGCUGGAACAAUAGCTT against Bcl2l2: active: 2.26; GGACUUUCUUCCAUCAAAUTT against Cilk1: inactive: 1.7; GGUGGUCUGGUUCAAGGAUTT against Mylk: inactive: 0.682.

Regarding GGGCCAAGUUCCGAAAGAATT against Dmbx1, the z-score was inactive: -0.443. As for GGGAUUGAAUCUUCUUCGCTT against Klhl28, the z-score is inactive: -0.349. For the sequence CCGAAUGUGGAUGUGAUGATT against Sycp2, the z-score is inactive: -0.464. For GCUGAAGUUUACUAUAACATT against Marco, the z-score is inactive: 0.565. For GGACCUAAACUGUCAGGAGTT against Eif3g, the z-score was inactive: 0.15. As to CCUCUGAGUGAUACACUGUTT against Klk1b9, the z-score was inactive: -0.477.

For the sequence CCUUCAGAAGUCGACUUGUTT against Rpl37, the z-score is inactive: 0.779. Turning to GGGCAGAAAAUCAUUUGUUTT against Anxa11, the z-score is inactive: 0.0839. Regarding GGAGAUCCAGGCAAUUUUUTT against Pink1, the z-score was inactive: 0.779. For the sequence GGUCCUACAGGAGAAGAUCTT against Tekt2, the z-score is active: -2.09. On to GCAUAAAACACUAAGGAAATT against Csn3, for which the z-score is inactive: -0.00366.

The record behind these values is PubChem BioAssay AID1508600 (Functional Genomics Laboratory (NCATS/FGL), 2020).
